Results deposited as PubChem BioAssay AID1224830 (NIAID, 2016).

Screen: 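Host factors that control LPS-induced TNF expression in human macrophages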 (primary screen)
System: human THP-1 monocytic leukaemia cells, TNF dual-luciferase reporter clone, PMA-differentiated to macrophage-like cells
Reagents: siRNA pool against human genes, 50 nM
Duration: LPS for 4 h, given about 3 days after siRNA transfection
Challenge: bacterial LPS (TLR4 ligand), 10 ng/ml
Measurement: 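Ratio of firefly to renilla light, scaled to the plate median and expressed as a robust z-score per replicate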
Reading the numbers: TNF reporter robust z-score: higher = stronger TNF reporter response to LPS
Call rule: 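Each well counts as active if its z-score is over 2.8 or under -1.5; controls are left without a call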
This is a random part of about 18,000 deposited reagents. About 2,900 of all reagents (16%) count as active. 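Calls are made per well; low scores hint the gene aids the LPS response, high scores that it dampens it.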 Repeated entries: four replicate wells of each siRNA pool. No sequences are given here.

C22orf42 (chromosome 22 open reading frame 42): TNF reporter robust z-score = 1.95; Call = inactive
C22orf42 (chromosome 22 open reading frame 42): TNF reporter robust z-score = 0.8; Call = inactive
C22orf42 (chromosome 22 open reading frame 42): TNF reporter robust z-score = 1; Call = inactive
C22orf42 (chromosome 22 open reading frame 42): TNF reporter robust z-score = 0; Call = inactive
UBA1 (ubiquitin like modifier activating enzyme 1): TNF reporter robust z-score = 2.08; Call = inactive
UBA1 (ubiquitin like modifier activating enzyme 1): TNF reporter robust z-score = 1.02; Call = inactive
UBA1 (ubiquitin like modifier activating enzyme 1): TNF reporter robust z-score = 1.29; Call = inactive
UBA1 (ubiquitin like modifier activating enzyme 1): TNF reporter robust z-score = 0.97; Call = inactive
MPLKIP (M-phase specific PLK1 interacting protein): TNF reporter robust z-score = 0.59; Call = inactive
MPLKIP (M-phase specific PLK1 interacting protein): TNF reporter robust z-score = 0.33; Call = inactive
MPLKIP (M-phase specific PLK1 interacting protein): TNF reporter robust z-score = 0.19; Call = inactive
MPLKIP (M-phase specific PLK1 interacting protein): TNF reporter robust z-score = 0.48; Call = inactive
PRLR (prolactin receptor): TNF reporter robust z-score = 1.02; Call = inactive
PRLR (prolactin receptor): TNF reporter robust z-score = 1.51; Call = inactive
PRLR (prolactin receptor): TNF reporter robust z-score = 1; Call = inactive
PRLR (prolactin receptor): TNF reporter robust z-score = 0.03; Call = inactive
GLT8D1 (glycosyltransferase 8 domain containing 1): TNF reporter robust z-score = -0.72; Call = inactive
GLT8D1 (glycosyltransferase 8 domain containing 1): TNF reporter robust z-score = 0.59; Call = inactive
GLT8D1 (glycosyltransferase 8 domain containing 1): TNF reporter robust z-score = -0.12; Call = inactive
GLT8D1 (glycosyltransferase 8 domain containing 1): TNF reporter robust z-score = 0.44; Call = inactive
INTS9 (integrator complex subunit 9): TNF reporter robust z-score = -0.07; Call = inactive
INTS9 (integrator complex subunit 9): TNF reporter robust z-score = 0.98; Call = inactive
INTS9 (integrator complex subunit 9): TNF reporter robust z-score = -0.5; Call = inactive
INTS9 (integrator complex subunit 9): TNF reporter robust z-score = 0.37; Call = inactive
LCN9 (lipocalin 9): TNF reporter robust z-score = -0.86; Call = inactive
LCN9 (lipocalin 9): TNF reporter robust z-score = -0.62; Call = inactive
LCN9 (lipocalin 9): TNF reporter robust z-score = -0.71; Call = inactive
LCN9 (lipocalin 9): TNF reporter robust z-score = -0.36; Call = inactive
ZBTB7A (zinc finger and BTB domain containing 7A): TNF reporter robust z-score = 0.7; Call = inactive
ZBTB7A (zinc finger and BTB domain containing 7A): TNF reporter robust z-score = 0.9; Call = inactive
ZBTB7A (zinc finger and BTB domain containing 7A): TNF reporter robust z-score = 1.35; Call = inactive
ZBTB7A (zinc finger and BTB domain containing 7A): TNF reporter robust z-score = 1.14; Call = inactive
CT47A4 (cancer/testis antigen family 47 member A4): TNF reporter robust z-score = -0.3; Call = inactive
CT47A4 (cancer/testis antigen family 47 member A4): TNF reporter robust z-score = 0.09; Call = inactive
CT47A4 (cancer/testis antigen family 47 member A4): TNF reporter robust z-score = -0.06; Call = inactive
CT47A4 (cancer/testis antigen family 47 member A4): TNF reporter robust z-score = 0.41; Call = inactive
PGK1 (phosphoglycerate kinase 1): TNF reporter robust z-score = 1.19; Call = inactive
PGK1 (phosphoglycerate kinase 1): TNF reporter robust z-score = -0.97; Call = inactive
PGK1 (phosphoglycerate kinase 1): TNF reporter robust z-score = -1.41; Call = inactive
PGK1 (phosphoglycerate kinase 1): TNF reporter robust z-score = 1.04; Call = inactive
PHLDB1 (pleckstrin homology like domain family B member 1): TNF reporter robust z-score = 0.1; Call = inactive
PHLDB1 (pleckstrin homology like domain family B member 1): TNF reporter robust z-score = 0.79; Call = inactive
PHLDB1 (pleckstrin homology like domain family B member 1): TNF reporter robust z-score = -0.77; Call = inactive
PHLDB1 (pleckstrin homology like domain family B member 1): TNF reporter robust z-score = -0.09; Call = inactive
NXPH1 (neurexophilin 1): TNF reporter robust z-score = -1.12; Call = inactive
NXPH1 (neurexophilin 1): TNF reporter robust z-score = 1.29; Call = inactive
NXPH1 (neurexophilin 1): TNF reporter robust z-score = 0.32; Call = inactive
NXPH1 (neurexophilin 1): TNF reporter robust z-score = 0.9; Call = inactive
SSC4D: TNF reporter robust z-score = -0.99; Call = inactive
SSC4D: TNF reporter robust z-score = 0.03; Call = inactive
SSC4D: TNF reporter robust z-score = -0.47; Call = inactive
SSC4D: TNF reporter robust z-score = 0.55; Call = inactive
H2AC14 (H2A clustered histone 14): TNF reporter robust z-score = 0.65; Call = inactive
H2AC14 (H2A clustered histone 14): TNF reporter robust z-score = 0.44; Call = inactive
H2AC14 (H2A clustered histone 14): TNF reporter robust z-score = 0.99; Call = inactive
H2AC14 (H2A clustered histone 14): TNF reporter robust z-score = 0.92; Call = inactive
GLB1L2 (galactosidase beta 1 like 2): TNF reporter robust z-score = -1.71; Call = active
GLB1L2 (galactosidase beta 1 like 2): TNF reporter robust z-score = -1.21; Call = inactive
GLB1L2 (galactosidase beta 1 like 2): TNF reporter robust z-score = -1.02; Call = inactive
GLB1L2 (galactosidase beta 1 like 2): TNF reporter robust z-score = -1.27; Call = inactive
